Results reported in paper PMC10163288.
Some of the results follow.

B1: il10ra_site1_normal_mot_HHH_b2_02337_000000026_0001_38_52_H_._HHH_b1_01793_0001_0000300034_0000001_0 (protein)
chain: SSSSSQEEVEELLEELERLLEEGDQERFSRLAQRIAQLAIRVNDPELLQRLWELVQEFARNSSSS
B2: il10ra_site1_sap_17_mot_HHH_b1_06348_000000162_0001_1_15_H_._HHH_b2_06921_0001_0000200013_0000001_0_0001_af2pred_0001 (protein)
chain: SSSSSSEEQDERSVRNLLEAAKRVPDPERARKSLHFAKHLVEAANDEELKELVERAEEELSSSSS
B3: il10ra_site1_sap_15_mot_HHH_b2_00093_af2_000000025_0001_40_54_H_._HHH_b1_03548_0001_0000100008_0000001_0_0001 (protein)
chain: SSSSSDQELIEEAEELAEEAIEKADNRAARFLLRQALEALRLTGDPKAAEILFNLARIVLSSSSS
B4: il10ra_site1_normal_mot_HHH_b2_02337_000000026_0001_38_52_H_._HHH_b2_03376_af2_0001_0000200015_0000001_0 (protein)
chain: SSSSSSEEERLEELLKEVEELLEKGDYREASRVAAELLRLAYRLSDPEVLRALWRLVRSISSSSS
B5: il10ra_site1_normal_mot_HHH_b1_03613_af2_000000245_0001_1_20_H_._HHH_b2_02982_0001_0000100004_0000001_0 (protein)
chain: SSSSDEAYELTRRAIEEAIELFREGNREEAEELLQEVLREVRELGNTAAEFSLEHLLRALSSSSS
B6: il10ra_site1_normal_mot_HHH_b2_03220_af2_000000223_0001_23_40_H_._HHH_b2_06428_af2_0001_0000100006_0000001_0 (protein)
chain: SSSSSDEEELERLKEELEEAVERGDTELVWRLLRELLELAFELNDEEAFEVVLRVARRFSSSSSS
B7: il10ra_site1_sap_18_mot_HHH_b2_02497_000000141_0001_1_20_H_._HHH_b1_00975_0001_0000100001_0000002_0_0001 (protein)
chain: SSSSDKEEELEKLLEELERLVEEGDREEFLELAQEVLRLAIQLNDEEALRLLWRLLHEVASSSSS
B8: il10ra_site1_normal_mot_8756ee2cf497b5429c717dfc0c0bcfd6_0001_000000186_0001_1_13_H_._HHH_b1_03955_af2_0001_0000100005_0000002_0_af2pred_0001 (protein)
chain: SSSSSEELKELIELIRRVAELDSEGNPEEARRLLEEAQKLAEELGDTTAEAQLRFLEEILNSSSS
B9: il10ra_site1_normal_mot_HHH_b1_05670_000000169_0001_1_19_H_._HHH_b2_02857_0001_0000400035_0000001_1 (protein)
chain: SSSSDEDYRRAKELIELIVELLREGNPEEAKKVLEELRELAEENNNPVLEWSVRLLEEDINSSSS
B10: il10ra_site1_normal_mot_HHH_b1_02997_000000220_0001_39_52_H_._HHH_b1_08382_0001_0000500028_0000001_0 (protein)
chain: SSSSSTEEVYELIRRAAELRYRGNPEEAEELLEEALRLAEELGNENFEFNIRYLLRQVRRSSSSS
B11: il10ra_site1_normal_mot_HHH_b1_03763_000000209_0001_22_38_H_._HHH_b2_00471_0001_0000100006_0000001_0 (protein)
chain: SSSSSSSEEEIEELLEEARHIPDAEERFRLLREAIELAVEAGDPELLKLIMEFIQELFSSSSSSS
B12: il10ra_site1_sap_24_mot_HHH_b2_00984_000000042_0001_1_20_H_._a9737a16b0b5168389c1a5856fbd9e1f_0001_0001_0000400005_0000001_0_0001_af2pred_0001 (protein)
chain: SSSSSSYAERLYRLSREAVELAREGNPEEARELLEEAEELARENNDLNLLAVIEYALEILSSSSS
B13: il10ra_site1_sap_18_mot_HHH_b2_05343_000000235_0001_19_35_H_._HHH_b1_08772_0001_0000100005_0000002_0_0001_af2pred_0001 (protein)
chain: SSSSSEEEERAEKLYEELRKLVEEGDRDEVRRVLHELIRLANSGKDQKAAELIREILQRLSSSSS
B14: il10ra_site1_sap_21_mot_HHH_b1_06914_000000280_0001_1_18_H_._HHH_b2_08153_0001_0000400035_0000001_0_0001 (protein)
chain: SSSSSREELREEVEEVIEELEEKNDTKLLHRLMELYKRAAELGDEELVREIFEVLLRIVQKSSSS
B15: il10ra_site1_normal_mot_HHH_b1_01779_000000096_0001_43_57_H_._HHH_b1_00260_0002_0000200013_0000001_0 (protein)
chain: SSSSDEEEEAVRRILESAERAEEVGDPEKARIALEFALALARAAGNPELEEKIRELLEELRSSSS
B16: il10ra_site1_normal_mot_HHH_b2_05813_000000266_0001_1_19_H_._HHH_b1_07280_0001_0000300014_0000002_0_af2pred_0001 (protein)
chain: SSSSDLEEIVFRLRVEARRLLQRGNPEEAERVLEEALEIAEEKGDPRLALAIRELIRRVQESSSS
B17: il10ra_site1_normal_mot_HHH_b1_05357_000000034_0001_23_39_H_._HHH_b2_04773_0001_0000200019_0000002_0_af2pred_0001 (protein)
chain: SSSSSSEEYEEEVKELLEQAKHIEDPKELTYVLIRAFALAVRGNDPELERLVEEVAIELSSSSSS
B18: il10ra_site1_sap_22_mot_1c3c3e46dde0d4e4be3ec3dd9add6289_0001_000000096_0001_34_50_H_._HHH_b1_02052_0001_0000100003_0000001_0_0001 (protein)
chain: SSSSDADELYRLIKEIIERIAEGDEERVEELLKELEELAKERNNWLAKMQLKFLEELLEQLSSSS
B19: il10ra_site1_sap_12_mot_HHH_b2_00440_af2_000000075_0001_42_56_H_._HHH_b1_03475_0001_0000400042_0000001_0_0001 (protein)
chain: SSSSSDEQEKALELSVEAFRLALRGDKEEARKVLEEAARLAEELGDERLLEQIERMLKTLSSSSS
B20: il10ra_site1_sap_19_mot_HHH_b1_03531_000000273_0001_41_54_H_._HHH_b1_01616_af2_0001_0000800032_0000003_0_0001 (protein)
chain: SSSDREEFAEAALKATQLALRLNDEETLQRLWRLIKRYAKEQDPELLEELEELVKELEEKYTSSS
B21: il10ra_site1_normal_mot_HHH_b2_04168_af2_000000050_0001_1_20_H_._HHH_b2_06044_0001_0000100016_0000001_0 (protein)
chain: SSSSADELFRRVKELLQEAIELHKNGNPEEAEKVLQEAEELVEKAGNENTLFVIRWLLELLSSSS
B22: il10ra_site1_sap_23_mot_HHH_b1_08629_000000017_0001_1_20_H_._HHH_b2_02587_af2_0001_0000100003_0000001_0_0001 (protein)
chain: SSSSADERFEKVKKLLQLLIELLEEGDEEKVEEVEEELRRLIEENNDWAARWSLEHLRRAYSSSS
B23: il10ra_site1_sap_14_mot_ems_3hM_3637_000000290_0001_1_19_H_._HHH_b1_03012_0001_0000200018_0000001_0_0001_af2pred_0001 (protein)
chain: SSSSSDAEKAAEFLLRAARRARKLGNEEKAKLALKFAIHLAKFAGNEELLEELEKLLEELGSSSS
B24: il10ra_site1_sap_21_mot_HHH_b1_04015_af2_000000074_0001_1_17_H_._3a8c9d8b51907fb311a13ef47c45c45e_0001_1_af2_0001_0000200008_0000001_1_0001 (protein)
chain: SSSSDDEKFAKLIQKAVRYAFQLGDEEALQEIWELAKLYGRHGDPEVLEELHRLLEELERRSSSS

Biological target: il10ra, Q13651
Test: yeast display titration

Apparent Kd, inactive:
B1 no binding seen
B2 no binding seen
B3 no binding seen
B4 > 497 nM
B5 no binding seen
B6 no binding seen
B7 no binding seen
B8 no binding seen
B9 no binding seen
B10 no binding seen
B11 no binding seen
B12 no binding seen
B13 no binding seen
B14 no binding seen
B15 no binding seen
B16 no binding seen
B17 no binding seen
B18 no binding seen
B19 no binding seen
B20 no binding seen
B21 no binding seen
B22 no binding seen
B23 no binding seen
B24 no binding seen

A stretch taken from the entries so far:
Apparent Kd, inactive:
B13 no binding seen
B14 no binding seen
